Data reported in patent US20260265340A1 (CUROGEN TECHNOLOGY, published 2026).
Results are given in words; binding and its absence hold for the method and conditions named. Some results given as binding are weak or reduced against the parent protein; the word gives no strength. Where a sequence is shown, tags or fusion partners need not be part of it.

Amino acid sequences for entries named in this document (tags omitted). Residues count along the entry.
UniProt Q16552, residues 20-155: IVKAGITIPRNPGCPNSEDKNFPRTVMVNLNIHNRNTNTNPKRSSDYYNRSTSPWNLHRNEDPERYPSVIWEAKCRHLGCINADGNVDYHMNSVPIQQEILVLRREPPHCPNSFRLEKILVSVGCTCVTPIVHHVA

How the values were obtained:
[1] = target: human IL-17A homodimer (IL-17AA) (human) (UniProt Q16552); experiment: SDS-PAGE (reducing and non-reducing) of the SEC fractions of FIG. 5a; co-elution
[2] = target: human IL-17A homodimer (IL-17AA) (human) (UniProt Q16552); experiment: size-exclusion chromatography of T1-T4-14 co-expressed with IL-17A in ExpiCHO cells and then incubated with E. coli TNFα at 4 °C

- binding [1]: binds
- binding [2]: binds
B1: IL-17RA/RC-Fc-TNFR2 fusion protein T1-T4-14 (Fc fusion)
chain: LRLLDHRAPVCSQPGLNCTVKNSDCLDDSWIHPRNLTPSSPKDLQIQLHFAHTQQGDLVPVAHIEWTLQTDASILYLEGAELSVLQLDTNERLCVRFEFLSKLRHHHRRWRFTFSHFVVDPGQEYEVTVHHLPKPIPDGDPNHQSKNFLVPDCEHPRMKVTTPCMSSALPWLNVSADGDNVHLVLNVSEEQHFGLSLYWNQVQGPPKPRWHKNLTGPQIITLNHTDLVPCLCIQVWPLEPDSVRTNICPFREDPRAHQNLWQAARLRLLTLQSWLLDAPCSLPAEAALCWRAPGGDPCQPLVPPLSWENVTVDKVLEFPLLKGHPNLCVQVNSSEKLQLQECLWADSLGPLKDDVLLLETRGPQDNRSLCALEPSGCTSLPSKASTRAARLGEYLLQDLQSGQCLQLWDDDLGALWACPMDKYIHKTGIEGRMDRNTGRGGEEKKKEKEKEEQEERETKTPECPSHTQPLGVFLFPPKPKDTLMISRTPEVTCVVVDVSQEDPEVQFNWYVDGVEVHNAKTKPREEQFNSTYRVVSVLTVLHQDWLNGKEYKCKVSNKGLPSSIEKTISKAKGQPREPQVYTLPPSQEEMTKNQVSLTCLVKGFYPSDIAVEWESNGQPENNYKTTPPVLDSDGSFFLYSRLTVDKSRWQEGNVFSCSVMHEALHNHYTQKSLSLSLGKGGGGSGGGGSGGGGSLELPAQVAFTPYAPEPGSTCRLREYYDQTAQMCCAKCPPGQHAKVFCTKTSDTVCDSCEDSTYTQLWNWVPECLSCSSRCSSDQVETQACTREQNRICTCRPGWYCALSKQEGCRLCAPLSKCRPGFGVARPGTETSDVVCKPCAPGTFSNTTSSTDICRPHQICSVVAIPGNASMDAVCTSTSPTRSMAPGAVHLPQPVSTRSQHTQPTPGPSTAPSTSILLPMGPSPPAEGSTGD
notes: Structure T1c-Fc-T4g; also called T1c-Fc-T4g; IL-17RA/RC-Fc-TNFR2 (T1-T4-14)
